# According to the supplement of paper PMC10373366:
# Counter-ions that a name gives are not always drawn. The list shows a part of the results. Repeats are few or missing, and single values can be far off.
# How the values were obtained:
# A2780 = assay: cell growth inhibition ratio vs untreated control (CCK8); higher = stronger inhibition of cell viability; conditions: 10 µM; 48 h
# Experimental: (§1)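 Natural product library (Topscience) screened at 10 µM final concentration for 48 h on ovarian cancer A2780 cells and patient-derived ovarian cancer cells (PDC) in 96-well plates; viability read by CCK8 and reported as inhibition ratio (%) relative to untreated control. Single-dose primary screen.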
# [1] = test system: patient-derived ovarian cancer cells (PDC); assay: as above; conditions: 10 µM; 48 h
# Experimental: as §1
Compound,cell growth inhibition ratio (A2780),cell growth inhibition ratio [1]
C/C=C\c1ccc(OC)cc1 [cis-Anethol],0.808%,-10%
CO[C@H]1[C@H](O)[C@@H](O)[C@@H](O)[C@H](O)[C@@H]1O [D-Pinitol],9.82%,-13.2%
CC1=C[C@]2(O)O[C@@]3(CC2=C(C)C)[C@@H](C)CC[C@@H]13 [Curcumenol],3.71%,-0.147%
O=c1c(-c2ccc(O)cc2)coc2cc(O[C@@H]3O[C@H](CO)[C@@H](O)[C@H](O)[C@H]3O)cc(O)c12 [Genistin],33.8%,-10.7%
CC[C@@]1(O)C(=O)OCc2c1cc1n(c2=O)Cc2cc3cc(O)ccc3nc2-1 [Hydroxy Camptothecine],89.9%,85.4%
COc1cc2c3cc1Oc1c(OC)c(OC)cc4c1[C@@H](Cc1ccc(O)c(c1)Oc1ccc(cc1)C[C@@H]3N(C)CC2)N(C)CC4 [Berbamine dihydrochloride],43.3%,-39.6%
COc1ccc(/C=C\c2cc(OC)c(OC)c(OC)c2)cc1O [Combretastatin A4],87.1%,34%
CCNC(=O)CC[C@H](N)C(=O)O [L-Theanine],8.82%,-6.08%
C=C1C(=O)O[C@H]2[C@H]1CC/C(C)=C/CC[C@@]1(C)O[C@@H]21 [Parthenolide],3.66%,10.4%
C=CCSC[C@H](N)C(=O)O [S-allyl-L-cysteine],14.7%,1.72%
Oc1ccc(CC2NCCc3cc(O)c(O)cc32)cc1 (centres undefined) [Higenamine Hydrochloride],7.82%,4.38%
CC[C@H]1OC(=O)[C@H](C)[C@@H](O[C@H]2C[C@@](C)(OC)[C@@H](O)[C@H](C)O2)[C@H](C)[C@@H](O[C@@H]2O[C@H](C)C[C@H](N(C)C)[C@H]2O)[C@](C)(O)C[C@@H](C)CN(C)[C@H](C)[C@@H](O)[C@]1(C)O [Azithromycin dihydrate],4.7%,-45.9%

# As a working copy, some entries already given:
Compound,cell growth inhibition ratio (A2780),cell growth inhibition ratio [1]
CC[C@@]1(O)C(=O)OCc2c1cc1n(c2=O)Cc2cc3cc(O)ccc3nc2-1 [Hydroxy Camptothecine],89.9%,85.4%
COc1cc2c3cc1Oc1c(OC)c(OC)cc4c1[C@@H](Cc1ccc(O)c(c1)Oc1ccc(cc1)C[C@@H]3N(C)CC2)N(C)CC4 [Berbamine dihydrochloride],43.3%,-39.6%
